Reference: PubChem BioAssay AID1347076 (National Center for Advancing Translational Sciences (NCATS), 2019)
The campaign covered roughly 400,000 compounds. About 13,000 (3.2%) were called active. The shares of active, inactive and inconclusive entries below differ from those in the screen. Calls follow the shape of the dose curve; as a rule, active = well fitted cell-killing curve with a large enough effect; inconclusive = small, poorly fitted or top-dose-only effect, or effect the other way; inactive = flat fitted curve, though single readings scatter. Potencies of inconclusive entries are doubtful fits and often do not repeat.

Assay: qHTS assay for MDR1-selective chemotherapeutics: Primary screen using the drug-selected MDR subline cells KB-V1; also: nearly all actives have a fitted effect of over 60% in size
Conditions: KB-V1 MDR cells viability, CellTiter-Glo, 72 h; activity change, negative = cytotoxicity: at 46.1 µM (top of the series)
Procedure, shortened: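 Potencies derive from concentration-effect curves fitted to normalized luminescence (CellTiter-Glo) of KB-V1 cells treated for 72 h at 37 degrees C in phenol-red-free DMEM containing 10% FBS.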
% is scaled to controls: 0 for no effect and ±100 for the full control effect; potency is read from the fitted curve at half-maximal effect.

SMILES	activity change, negative = cytotoxicity	Potency
CCN(CC)C(=O)C1=CC(c2ccc3c(c2)OCO3)=NS(=O)(=O)N1C	inactive: 1.32%	–
COc1ccc(N(C)S(=O)(=O)c2cccc(C(=O)NCC(c3cccs3)N(C)C)c2)cc1 (stereo not drawn)	inactive: -28.1%	–
CCOC(=O)c1c(NC(=O)c2ccco2)n(C2CCCCC2)c2nc3ccccc3nc12	–	inconclusive: 18.4 µM [cytotoxic, single point]
CC(C)Cc1nn2c(=O)cc(CSCC(=O)Nc3ccccc3F)nc2s1	–	inconclusive: 25.9 µM [cytotoxic, partial curve, poor fit]
CC(=O)c1c(C)[nH]c(C(=O)CSc2nnc(-c3ccccc3)n2Cc2ccc3c(c2)OCO3)c1C	–	inconclusive: 1.3 µM [cytotoxic, full curve]
O=C(CCCCn1c(=O)c2ccccc2n(Cc2ccccc2F)c1=O)NCc1ccccc1Cl	inactive: 0%	–
Cc1ccccc1C=Nc1ccccc1C(N)=O	–	inconclusive: 4.61 µM [cytotoxic, full curve]
O=C(Nc1cccnc1)c1sc2cccc(F)c2c1Cl	–	inconclusive: 20.6 µM [cytotoxic, single point]
COc1ccc(/C=N/NS(=O)(=O)c2ccccc2)cc1OS(=O)(=O)c1ccc(C)cc1	–	active: 18.4 µM
COc1cccc(C2CC(c3ccccc3OC)n3ncnc3N2)c1 (stereo not drawn)	–	inconclusive: 29.1 µM [cytotoxic, single point]
Cc1cc(C)n(/N=C/c2cccs2)c(=O)c1C#N	–	inconclusive: 29.1 µM [rising, single point]
CCC(Oc1ccccc1)C(=O)Nc1ccc(OCc2cc(=O)n3ccc(C)cc3n2)cc1 (stereo not drawn)	–	inconclusive: 18.4 µM [cytotoxic, single point]
N=c1c2c(-c3ccccc3)c(-c3ccccc3)oc2ncn1CCN1CCOCC1	–	inconclusive: 10.3 µM [cytotoxic, partial curve, poor fit]
COc1ccc(N2CCN(C(=O)CSc3nnc(NC(=O)C4CCC4)s3)CC2)cc1	–	inconclusive: 13 µM [cytotoxic, partial curve]
CC(=O)c1ccc(NC(=O)N2CCc3ccccc3C2)cc1	–	inconclusive: 16.4 µM [cytotoxic, partial curve]
O=S(=O)(NCCc1nnc2ccc(SCc3c(F)cccc3Cl)nn12)c1ccccc1	inactive: 8.53%	–
CCOc1ccc(NC(=S)NC(=O)/C=C/c2ccc(OC)c(OC)c2)c([N+](=O)[O-])c1	–	inconclusive: 23.1 µM [cytotoxic, partial curve, poor fit]
COCCNC(=O)NC(=O)COC(=O)c1ccc2[nH]c3c(c2c1)CCCC3	–	inconclusive: 11.6 µM [cytotoxic, partial curve]

Single records (already shown). Values in the order: activity change, negative = cytotoxicity | Potency
`CCOC(=O)c1c(NC(=O)c2ccco2)n(C2CCCCC2)c2nc3ccccc3nc12` is entered as – | inconclusive: 18.4 µM [cytotoxic, single point]
`CCC(Oc1ccccc1)C(=O)Nc1ccc(OCc2cc(=O)n3ccc(C)cc3n2)cc1` (stereo not drawn) is entered as – | inconclusive: 18.4 µM [cytotoxic, single point]
